Source: patent US9028816
No constants are given. Whether binding was seen depends on the method and setting. Binding can be weak; no strength is given.

B1: 3P2-31 (VHH)
VHH: QVQLQESGGGLVQAGDSLRLSCAASGRTFTMGWFRQAPGKERQFVAALTWTGGSPVYADSVKGRFTTWRVLDNNTVYLHMNSLKPEDTAVYHCAAARTYYGNISEYYDYWGQGTQVTVSS
B2: 3L-41 (VHH)
VHH: QVQLQDSGGGLVQAGGSLRLSCAASGRTFRRYAMGWYRQAPGKQRVLVAAITSNGRPSVADSVKGRFTISSDTAKNTVYLQMNSLKPEDTALYYCTLYNTSADYYNQSPSSWGQGTQVTVLS
B3: 3P1-31 (VHH)
VHH: QVQLQESGGGLVQAGGSLRLSCAASGRTFRRYAMGWYRQAPGKQRELVAAITSGGRTSVADTVKGRFTISSDNAKNTVYLQMNSLKPEDAAVYYCTLYNSTTNYYNQSPSSWGQGTQVTVSS

target: collagen type I; test: ELISA: collagen type I coated at 25 µg/ml, purified VHH in twofold dilutions, detection as in Example 7 (Example 34) [collagen type I]

Row | binding | Binder
1 | binds | B1
2 | binds | B2
3 | binds | B3

target: collagen type III; test: ELISA: collagen type III coated at 25 µg/ml, purified VHH in twofold dilutions, detection as in Example 7 (Example 34) [collagen type III]

Row | binding | Binder
4 | binds | B1
5 | binds | B2
6 | binds | B3
